Experimental data as given in patent US20060111357A1, “Quinoline compounds for use in mch receptor related disorders” (priority 2003, published 2006).

Sequences of proteins named here, by UniProt entry; tags and fusion partners are left off. A change or cut given only in a name is not applied to a line headed by its entry.
UniProt Q12809: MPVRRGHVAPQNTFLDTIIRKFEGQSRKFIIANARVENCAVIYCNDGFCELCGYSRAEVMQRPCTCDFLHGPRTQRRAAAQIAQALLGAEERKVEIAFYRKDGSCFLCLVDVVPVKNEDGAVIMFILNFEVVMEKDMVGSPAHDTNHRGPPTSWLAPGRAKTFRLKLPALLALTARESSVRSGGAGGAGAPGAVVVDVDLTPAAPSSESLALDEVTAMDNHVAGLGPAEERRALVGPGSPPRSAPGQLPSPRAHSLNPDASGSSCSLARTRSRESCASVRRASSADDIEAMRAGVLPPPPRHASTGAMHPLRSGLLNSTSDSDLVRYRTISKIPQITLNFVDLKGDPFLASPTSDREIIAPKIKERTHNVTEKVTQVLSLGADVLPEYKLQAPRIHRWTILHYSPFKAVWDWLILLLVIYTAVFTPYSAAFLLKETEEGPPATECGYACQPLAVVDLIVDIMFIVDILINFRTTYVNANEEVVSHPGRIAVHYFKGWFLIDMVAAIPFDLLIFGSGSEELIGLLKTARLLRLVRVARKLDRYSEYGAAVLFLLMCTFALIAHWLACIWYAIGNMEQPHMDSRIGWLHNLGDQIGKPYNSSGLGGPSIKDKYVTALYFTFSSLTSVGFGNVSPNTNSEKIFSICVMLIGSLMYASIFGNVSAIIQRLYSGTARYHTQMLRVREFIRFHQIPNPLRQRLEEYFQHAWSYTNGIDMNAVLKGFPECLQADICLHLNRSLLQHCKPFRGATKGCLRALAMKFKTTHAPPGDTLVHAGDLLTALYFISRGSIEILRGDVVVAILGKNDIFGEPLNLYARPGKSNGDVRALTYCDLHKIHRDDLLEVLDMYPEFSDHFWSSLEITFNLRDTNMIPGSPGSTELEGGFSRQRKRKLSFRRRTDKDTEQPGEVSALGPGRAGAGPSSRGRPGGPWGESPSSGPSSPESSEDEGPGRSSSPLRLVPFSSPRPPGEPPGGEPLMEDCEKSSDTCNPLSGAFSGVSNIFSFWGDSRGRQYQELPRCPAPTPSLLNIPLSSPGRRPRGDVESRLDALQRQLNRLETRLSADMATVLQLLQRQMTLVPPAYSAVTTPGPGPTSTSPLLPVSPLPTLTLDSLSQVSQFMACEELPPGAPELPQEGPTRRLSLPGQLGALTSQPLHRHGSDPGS

Target: HERG channels (Homo sapiens, UniProt Q12809)
Assay: HERG selectivity method, whole-cell patch-clamp recordings

Work on `C(=C\c1ccccc1)/CN1CCN(C(c2ccccc2)c2ccccc2)CC1` [Cinnarizine] yielded a Ki of 0.36 µM.
Work on `CN(C)CCC=C1c2ccccc2COc2ccccc21` [Doxepine] yielded a Ki of 24 µM.
